In PubChem BioAssay AID1347426 (Functional Genomics Laboratory (NCATS/FGL), 2020) one finds median seed-adjusted z-score data, which are given here for 108 sequences.

The campaign covered roughly 31,000 sequences. About 1,400 (4.5%) were called active.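 Rule for the calls: active = median seed-adjusted z-score above 1 or below -1; inactive = the rest.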 The list shows a part of the results.

The assay can be described thus: Novel Modifiers of Survival Motor Neuron (SMN) Protein: Gene Identification via Genome-wide siRNA Screen.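 Note: luminescence tracks full-length SMN protein made from the SMN2 reporter.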 The settings on record: HEK293T SMN2-luciferase reporter, siRNA knockdown, 72 h; actives lie on both sides. A digest of the protocol:
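HEK293T cells stably expressing an SMN2 splicing/cDNA-luciferase reporter were reverse-transfected with a druggable-genome siRNA library and read by luminescence at 72 hours; hits defined by MAD score above 1.0 or below -1.0.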
With GGACAUCUGACCAGAGAAATT against LILRB3, the median seed-adjusted z-score is inactive: 0.0304.

On to GAACAAAACCCGUUACAAUTT against CHRNB4, for which the median seed-adjusted z-score was inactive: -0.317.

For the sequence GUACGUUAGCCUAAUUGAATT against ZKSCAN5, the median seed-adjusted z-score is inactive: -0.229.

On to GCAAUGGACCAGUAUAGUATT against ANAPC7, for which the median seed-adjusted z-score was inactive: -0.263.

GGAGUACUACGAUCGCAUUTT against PYGM: the median seed-adjusted z-score is inactive: -0.0689.

As to GGGAGUAAGUUACUGCUAATT against CHST5, the median seed-adjusted z-score was inactive: 0.0149.

ACAUGGAUGUAUUCCACUUTT against IL21R: the median seed-adjusted z-score was inactive: 0.0068.

For GCUUUACAGAAAGCCGUGATT against STRADB, the median seed-adjusted z-score was inactive: 0.21.

On to CCUUCUCCUGAGUUUUUCATT against LHPP, for which the median seed-adjusted z-score is inactive: 0.02.

Regarding GGACAAAGACUGUCGCCUATT against DHX35, the median seed-adjusted z-score is inactive: -0.066.

For the sequence CAACUGCUACCUUAGCAUATT against RNF133, the median seed-adjusted z-score is inactive: 0.

As to GAACUGUGCUGAUGUGAAATT against PATE1, the median seed-adjusted z-score was active: 1.21.

Take GUCCCUACGUGUACUGAAATT against LIAS: the median seed-adjusted z-score is inactive: -0.31.

As to GCGCAACGGUUUAACCAUUTT against ATP7B, the median seed-adjusted z-score was inactive: 0.0947.

In the case of AUGACUAUCCUAAAUUUAATT against SEC11A, the median seed-adjusted z-score is inactive: -0.494.

Take GGUUUCGACUUCAACAUCATT against 3-Sep: the median seed-adjusted z-score was inactive: 0.0683.

On to GCAACAACGACAUCAAUGATT against RNH1, for which the median seed-adjusted z-score was inactive: 0.55.

Regarding GUAUUCUCAAAAACGUAUATT against PDE3A, the median seed-adjusted z-score is inactive: 0.291.

In the case of GGAUUCUAAGUACAGAGAATT against ZNF323, the median seed-adjusted z-score was inactive: -0.319.

With CUUCCUGGGUGUAAUGUUATT against IGSF1, the median seed-adjusted z-score is inactive: 0.258.

With GGAUGCUUGUAUAUUCGUATT against S1PR3, the median seed-adjusted z-score is inactive: -0.0931.

Regarding GUGCUACUGUUUAUCCGUATT against VEGFA, the median seed-adjusted z-score was inactive: 0.495.

In the case of CGGACUUCAUUGUUCUCAATT against A4GALT, the median seed-adjusted z-score is inactive: -0.286.

As to GCUGAUCUAGCUCAAUUUATT against CCT8L2, the median seed-adjusted z-score was inactive: -0.39.

Turning to GUAUUCUCAUCUUCGUCUATT against ATP1A4, the median seed-adjusted z-score was inactive: 0.116.

With GUACCGAGAGAAUAACAAATT against SYP, the median seed-adjusted z-score was inactive: -0.0289.

Turning to GAGGGAAACUAAUCUGGAUTT against VIM, the median seed-adjusted z-score was inactive: 0.431.

Regarding GUGGUUUCUUGAUCUGAAATT against HSDL2, the median seed-adjusted z-score is inactive: -0.0717.

Consider GGAAAUCUCGGAGAUCACATT against MLYCD, for which the median seed-adjusted z-score was inactive: -0.154.

Consider GGAGUGCAAGGACAAGUAUTT against IRX2, for which the median seed-adjusted z-score is inactive: -0.409.

As to CCUGCUAUUUAGUCAUUGATT against AOAH, the median seed-adjusted z-score is inactive: -0.123.

In the case of GCAAAUUGCUGCCCACGCUTT against NHLH2, the median seed-adjusted z-score is inactive: 0.

On to CUAGAUGUCUAUAACAAUATT against PPP3CC, for which the median seed-adjusted z-score was inactive: 0.271.

As to GCGUCGAAGUUGUAGGAUUTT against ATAD2, the median seed-adjusted z-score was inactive: -0.246.

For the sequence GUGUGGUACAGAACAUUUATT against GUCA1C, the median seed-adjusted z-score is inactive: -0.617.

As for GGACUAGUAUAGGAAUGGATT against ABCG2, the median seed-adjusted z-score is inactive: 0.

GAGAUUCCAAAAUUAGAUATT against VRK1: the median seed-adjusted z-score is inactive: -0.148.

For the sequence GCAUAGACAUGGUCUCCGATT against GABRB1, the median seed-adjusted z-score is inactive: 0.238.

GCUAUUGGAGGAUCAGUUUTT against CCND1: the median seed-adjusted z-score is inactive: -0.912.

As to CAGCAAUUCAUAAGCAUUATT against GMPR, the median seed-adjusted z-score is inactive: 0.0757.

CCAGAGUCCUGUUCGAUUUTT against USP30: the median seed-adjusted z-score is inactive: -0.646.

For GAGCGGCGGUACAAAUGUATT against ZNF646, the median seed-adjusted z-score was inactive: 0.

With CCACUGGAGAAAACGUGUATT against TIAM2, the median seed-adjusted z-score is inactive: -0.0239.

For the sequence GCCGAGUUGUAUUUGAUGATT against CA3, the median seed-adjusted z-score was inactive: -0.276.

On to GAUUGAAGAGUUAGCAAUATT against RUFY2, for which the median seed-adjusted z-score is inactive: 0.

With UGACCAAUGAGACUCUCAATT against PAQR5, the median seed-adjusted z-score is inactive: -0.0985.

For the sequence ACAUGAAGCUGGAAUGUAATT against WNT7A, the median seed-adjusted z-score was inactive: 0.0931.

With GGGUCCAACAUUCCGAAUATT against CHD1, the median seed-adjusted z-score is active: -1.03.

CCCUUACUACAACUACAAATT against ZBTB38: the median seed-adjusted z-score is inactive: 0.448.

As for GAGUCUAUCUUGAUAAUCUTT against PPWD1, the median seed-adjusted z-score is inactive: -0.341.

As for CGAGGACACAGAUAAAGAATT against CD7, the median seed-adjusted z-score is inactive: 0.249.

GAAGUGUUAUGUAAGGAGATT against EPHX2: the median seed-adjusted z-score is inactive: 0.

For the sequence GGAGACUUGAAUUACCUUATT against STAT5B, the median seed-adjusted z-score is inactive: 0.

As for GCAUCAGUGCGGAAAGCAATT against SRGAP3, the median seed-adjusted z-score was inactive: -0.0961.

CAUCUCUACUAAGCGAAAATT against PTRF: the median seed-adjusted z-score is inactive: -0.0151.

Take CGGAGUUCAGUUUCACUGATT against COCH: the median seed-adjusted z-score was inactive: -0.524.

With CCUGGAUUGUUGUAAGUAATT against ZNF780B, the median seed-adjusted z-score was inactive: -0.332.

Take AUAUAUCACCUGUUUGUUATT against ATM: the median seed-adjusted z-score was inactive: 0.22.

In the case of GGAGAUAUGAUGAUACUAATT against MMP13, the median seed-adjusted z-score was inactive: 0.265.

Consider GAGAGUCCGUUGAAAAGUATT against BCLAF1, for which the median seed-adjusted z-score is inactive: -0.823.

On to GAACUUCGUCUGUUUAACATT against USP12, for which the median seed-adjusted z-score was inactive: 0.121.

As to GGAUGCAAUUUCUUAAGGATT against RNF14, the median seed-adjusted z-score is inactive: 0.296.

Turning to GCAUCGGUUUGGUCCUAUATT against NDUFA9, the median seed-adjusted z-score was inactive: -0.325.

On to GGACGCAGAGAACAGCAUGTT against SCT, for which the median seed-adjusted z-score is inactive: -0.454.

For the sequence CUGUGAUUGAUGAAAUAGATT against SPATA5L1, the median seed-adjusted z-score was inactive: 0.252.

On to CCGGGACAUUGACACAGCATT against ATP5G1, for which the median seed-adjusted z-score was inactive: -0.311.

Take GACCCGCUGUUAGACAUCATT against CNTN3: the median seed-adjusted z-score is inactive: 0.732.

As to GAGAAGUUCCUGACAAAGATT against METTL7B, the median seed-adjusted z-score is inactive: 0.223.

Consider CCACGUGUCUAACACCAAUTT against KRT79, for which the median seed-adjusted z-score was inactive: 0.338.

For the sequence CCAUGUUAGAAGCCCGGAATT against ZNF385D, the median seed-adjusted z-score is inactive: -0.338.

Take CGCCCGAUUUUGGAACUAATT against ELMO1: the median seed-adjusted z-score was inactive: -0.00404.

As for GAUCAUCUAUGACCGGAAATT against EIF4EBP1, the median seed-adjusted z-score was inactive: -0.161.

Regarding GCAUCAUGAUUACGGGAAATT against SPO11, the median seed-adjusted z-score was inactive: 0.475.

For the sequence CAUUCUGUGGUGAAACAUUTT against SCLY, the median seed-adjusted z-score is inactive: 0.00396.

With GGGUCAUUCUAUGGGCAAATT against OGFOD2, the median seed-adjusted z-score is inactive: 0.493.

As for CAAAGGGAAGCAAAAACAATT against HMGA1, the median seed-adjusted z-score was inactive: 0.557.

Turning to GUUUACCUCUGGAUACACUTT against SNRPD1, the median seed-adjusted z-score is active: -2.97.

Regarding GCUUUAAUGCAGAUGUGCATT against COX11, the median seed-adjusted z-score is inactive: -0.317.

Consider AGUGCUCAGCAUUACGUAATT against EIF5A, for which the median seed-adjusted z-score was inactive: 0.00397.

For GGAUUUACCUUGUUCUAUATT against MTF2, the median seed-adjusted z-score was inactive: 0.

For GGUGCUACGUGUACCAUAATT against RRH, the median seed-adjusted z-score was inactive: -0.0112.

For CAAGUAUAUCAUUCGAAUATT against CLCA1, the median seed-adjusted z-score was inactive: 0.015.

As for CUCUAGAACCCAAUCCAAUTT against GIPC3, the median seed-adjusted z-score is inactive: -0.27.

Consider GGCCUGCUGCAUGUACAUATT against PVRL4, for which the median seed-adjusted z-score is inactive: -0.266.

Regarding CAGUCAUUCGGCUCAAAAATT against ADA, the median seed-adjusted z-score is inactive: -0.242.

For the sequence AAACACCCAUGAACAUCAATT against WWTR1, the median seed-adjusted z-score is inactive: -0.579.

For GGAGGAUGCCUGAAUUCUATT against ASS1, the median seed-adjusted z-score is inactive: 0.0886.

Regarding GCCGGAUGGUUAAGAAGAUTT against STK40, the median seed-adjusted z-score is inactive: -0.555.

Regarding CGCUACUUCUUGGACAAGATT against BCKDK, the median seed-adjusted z-score was inactive: 0.

As to CGAAAGCUUCUGAAUCAUUTT against FKBP5, the median seed-adjusted z-score was inactive: -0.598.

Regarding CCCUGUAUCUUGAUGAACATT against UNC13C, the median seed-adjusted z-score is inactive: -0.136.

For GAGUCAAAUAUGGAACGAATT against BUB1, the median seed-adjusted z-score is inactive: 0.566.

Regarding CGCUGUUCAAUGAACUAUATT against GBA2, the median seed-adjusted z-score is inactive: 0.143.

As to CCUGUAACCUGUGCCUACATT against DPEP2, the median seed-adjusted z-score was inactive: 0.

With GCUCCACACUAAAUCCGCATT against PRKCA, the median seed-adjusted z-score is inactive: -0.249.

CGAGGUGACUGGUACAAGATT against NDUFV1: the median seed-adjusted z-score was inactive: -0.653.

For the sequence AAGCGGUUGUUUUAGAGCATT against UBR5, the median seed-adjusted z-score was inactive: 0.114.

Turning to GGCCUACUCAGGAAUUCAATT against CUGBP2, the median seed-adjusted z-score was inactive: -0.532.

For UGUCCUGAGUAAGACCAAATT against GSS, the median seed-adjusted z-score is inactive: 0.122.

For CCACUAAAGGAUCAACGUATT against PHKB, the median seed-adjusted z-score is inactive: -0.142.

With AAGACAUACCGACCUCUUATT against PPIL3, the median seed-adjusted z-score is inactive: 0.282.

On to CACGAACUCUUGAAUGGAATT against THPO, for which the median seed-adjusted z-score was inactive: -0.0366.

For UCCUGAAUCUGGACUCUAATT against ST3GAL3, the median seed-adjusted z-score was inactive: -0.133.

Consider GCAUUAUGCGAGUCAACAATT against PSMB4, for which the median seed-adjusted z-score is inactive: -0.16.

In the case of CAAACGAGAUCCUAACCAATT against MAP3K9, the median seed-adjusted z-score is inactive: -0.498.

In the case of AGACUAGUUUAUGAGAUAATT against AOC3, the median seed-adjusted z-score was inactive: -0.474.

As to GGAAAUCCAUGUCCGUGUATT against ATP2A3, the median seed-adjusted z-score is inactive: -0.28.

For CGGAAGUUAUCGUUCCGAUTT against FAT1, the median seed-adjusted z-score is inactive: -0.00397.
